Results deposited as PubChem BioAssay AID743454 (Peter MacCallum Cancer Centre, 2014).

Aim: 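Search for knock-downs that restore vorinostat killing in resistant colon cancer cells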 (primary screen)
Cells: human HCT116-VR colon cancer cells, selected for vorinostat resistance
Reagent: siRNA pool against human genes, 40 nM siRNA pool
Duration: vorinostat for 24 h, read-out about 72 h after transfection
Challenge: vorinostat at 2.5 µM final
Read-out: 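Cell viability by CellTiter-Fluor and caspase 3/7 activity by luminescence, each scaled to mock wells per plate, duplicates averaged, then robust z-scored over all plates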
Scale: viability robust z-score: higher = more viable cells than screen typical; caspase robust z-score: higher = more caspase 3/7 activity than screen typical
Active means: 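a knock-down is a hit when classed RV1 or RV2 for lowered viability, or CA1 or CA2 for caspase activation; those lethal without drug were dropped; hits were retested singly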
The deposit covers about 18,000 reagents; this is an unselected part. In the full data, 450 (2.5%) are marked active. 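Single biological run; no consistent viability z cut-off exists, so the class columns, not z-scores, define the calls.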

GALNT1 (polypeptide N-acetylgalactosaminyltransferase 1)
- viability hit class: no change
- caspase hit class: no change
- viability robust z-score: 0.12
- caspase robust z-score: -1.36
- activity call: inactive

OR4D10 (olfactory receptor family 4 subfamily D member 10)
- viability hit class: no change
- caspase hit class: no change
- viability robust z-score: 1.08
- caspase robust z-score: 0.62
- activity call: inactive

ABO
- viability hit class: no change
- caspase hit class: no change
- viability robust z-score: 0.26
- caspase robust z-score: -0.3
- activity call: inactive

FABP6 (fatty acid binding protein 6)
- viability hit class: RV2 (reduced viability)
- caspase hit class: no change
- viability robust z-score: -3.52
- caspase robust z-score: 2.92
- activity call: active

VCF2 (VCP nuclear cofactor family member 2)
- viability hit class: no change
- caspase hit class: no change
- viability robust z-score: -0.06
- caspase robust z-score: -0.26
- activity call: inactive

OR8A1 (olfactory receptor family 8 subfamily A member 1)
- viability hit class: no change
- caspase hit class: no change
- viability robust z-score: 0.63
- caspase robust z-score: -0.39
- activity call: inactive

SNX8 (sorting nexin 8)
- viability hit class: no change
- caspase hit class: no change
- viability robust z-score: -0.27
- caspase robust z-score: 1.08
- activity call: inactive

TYW3 (tRNA-yW synthesizing protein 3 homolog)
- viability hit class: no change
- caspase hit class: no change
- viability robust z-score: -0.8
- caspase robust z-score: -0.96
- activity call: inactive

SRSF10 (serine and arginine rich splicing factor 10)
- viability hit class: no change
- caspase hit class: no change
- viability robust z-score: 0.14
- caspase robust z-score: -0.45
- activity call: inactive

MCHR1 (melanin concentrating hormone receptor 1)
- viability hit class: no change
- caspase hit class: no change
- viability robust z-score: -0.68
- caspase robust z-score: 0.23
- activity call: inactive

RAI14 (retinoic acid induced 14)
- viability hit class: no change
- caspase hit class: no change
- viability robust z-score: -1.22
- caspase robust z-score: 2.35
- activity call: inactive

PITPNB (phosphatidylinositol transfer protein beta)
- viability hit class: no change
- caspase hit class: no change
- viability robust z-score: 0.32
- caspase robust z-score: -0.54
- activity call: inactive

ZFP69B (ZFP69 zinc finger protein B)
- viability hit class: no change
- caspase hit class: no change
- viability robust z-score: -0.64
- caspase robust z-score: 1.75
- activity call: inactive

FNDC7 (fibronectin type III domain containing 7)
- viability hit class: no change
- caspase hit class: no change
- viability robust z-score: -0.3
- caspase robust z-score: -0.86
- activity call: inactive

Entries listed so far whose target name starts with F or f (2):
FABP6 (fatty acid binding protein 6)
- viability hit class: RV2 (reduced viability)
- caspase hit class: no change
- viability robust z-score: -3.52
- caspase robust z-score: 2.92
- activity call: active

FNDC7 (fibronectin type III domain containing 7)
- viability hit class: no change
- caspase hit class: no change
- viability robust z-score: -0.3
- caspase robust z-score: -0.86
- activity call: inactive

More entries follow.
SPAG17 (sperm associated antigen 17)
- viability hit class: no change
- caspase hit class: no change
- viability robust z-score: 0.86
- caspase robust z-score: -0.11
- activity call: inactive

ZNF395 (zinc finger protein 395)
- viability hit class: no change
- caspase hit class: no change
- viability robust z-score: -0.16
- caspase robust z-score: -0.84
- activity call: inactive

DCAF8 (DDB1 and CUL4 associated factor 8)
- viability hit class: no change
- caspase hit class: no change
- viability robust z-score: 0.05
- caspase robust z-score: -0.31
- activity call: inactive

CDKN2D (cyclin dependent kinase inhibitor 2D)
- viability hit class: no change
- caspase hit class: no change
- viability robust z-score: -0.89
- caspase robust z-score: 0.38
- activity call: inactive

ADAMTS6 (ADAM metallopeptidase with thrombospondin type 1 motif 6)
- viability hit class: no change
- caspase hit class: no change
- viability robust z-score: -0.9
- caspase robust z-score: 1.5
- activity call: inactive

THOC5 (THO complex subunit 5)
- viability hit class: no change
- caspase hit class: CA1 (caspase activation)
- viability robust z-score: -0.58
- caspase robust z-score: 5.34
- activity call: active

ALDH1A3 (aldehyde dehydrogenase 1 family member A3)
- viability hit class: no change
- caspase hit class: no change
- viability robust z-score: -2.03
- caspase robust z-score: 1.59
- activity call: inactive
